In this test the target is T1, soluble colony-stimulating factor 1 receptor (sCSF1R-HA-2A) (mouse) (UniProt P09581).
T1 sequence: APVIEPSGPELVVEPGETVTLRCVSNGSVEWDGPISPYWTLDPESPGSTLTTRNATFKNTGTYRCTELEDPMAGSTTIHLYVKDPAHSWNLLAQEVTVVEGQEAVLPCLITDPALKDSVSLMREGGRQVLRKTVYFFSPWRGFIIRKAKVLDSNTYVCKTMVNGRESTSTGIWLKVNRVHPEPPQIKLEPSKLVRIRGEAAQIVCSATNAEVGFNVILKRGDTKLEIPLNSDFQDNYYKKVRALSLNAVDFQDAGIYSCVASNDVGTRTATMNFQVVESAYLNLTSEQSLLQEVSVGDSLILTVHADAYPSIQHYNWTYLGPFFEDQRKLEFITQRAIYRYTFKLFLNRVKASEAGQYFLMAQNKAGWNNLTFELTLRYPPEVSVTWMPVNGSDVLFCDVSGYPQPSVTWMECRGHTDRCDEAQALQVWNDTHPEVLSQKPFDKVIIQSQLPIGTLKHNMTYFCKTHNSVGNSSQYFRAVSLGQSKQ
In words: co-IP.

Experimental findings from article doi:10.1101/2020.09.09.288928 are described below.

No constants are given. Whether binding was seen depends on the method and setting. Binding seen in cells or lysates may run through a third protein. Some binding calls cover weakened binding; strength is not graded here. Where a sequence is shown, tags or fusion partners need not be part of it.

B1: recombinant murine CSF1 (ligand, UniProt P07141 33-492)
chain: KEVSEHCSHMIGNGHLKVLQQLIDSQMETSCQIAFEFVDQEQLDDPVCYLKKAFFLVQDIIDETMRFKDNTPNANATERLQELSNNLNSCFTKDYEEQNKACVRTFHETPLQLLEKIKNFFNETKNLLEKDWNIFTKNCNNSFAKCSSRDVVTKPDCNCLYPKATPSSDPASASPHQPPAPSMAPLAGLAWDDSQRTEGSSLLPSELPLRIEDPGSAKQRPPRSTCQTLESTEQPNHGDRLTEDSQPHPSAGGPVPGVEDILESSLGTNWVLEEASGEASEGFLTQEAKFSPSTPVGGSIQAETDRPRALSASPFPKSTEDQKPVDITDRPLTEVNPMRPIGQTQNNTPEKTDGTSTLREDHQEPGSPHIATPNPQRVSNSATPVAQLLLPKSHSWGIVLPLGELEGKRSTRDRRSPAELEGGSASEGAARPVARFNSIPLTDTGHVEQHEGSSDPQIPE
As to B1, the binding result is recorded as “binds”.
